# PubChem BioAssay AID1224829 – NIAID – 2016
# Test: 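Genes needed for LPS-driven NF-kappaB p65 nuclear entry in mouse macrophages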 (follow-up of hits)
# Cell system: mouse RAW264.7 G9 macrophage reporter cells
# Knock-down reagent: single siRNA against mouse genes, 100 nM
# Timing: 2 days of siRNA knock-down, then 40 min of LPS before fixing
# Conditions: LPS (Salmonella minnesota R595) at 10 ng/ml
# Measurement: 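High-content images after 40 min LPS exposure; GFP-p65 nucleus to surrounding ring signal ratio, normalised to plate median and non-targeting control wells, expressed as z-score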
# Scale: p65 translocation z-score: higher = more nuclear NF-kappaB p65 after LPS
# Rule for the call: 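Active means the replicate-mean z-score lies beyond plus or minus 2, in either direction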
# Meaning of the calls: active = changed p65 translocation (either direction); inactive = no clear change
# The deposit covers about 3,800 reagents; this is a random part of them. 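Calls cover raised and lowered translocation; gene median uses one vendor's three siRNAs; qiagen siRNAs acted more weakly than ambion siRNAs.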 The numbers tell different reagents against one gene apart. Not all columns of the deposit are shown.
gene symbol,siRNA no.,siRNA vendor or control pool,"p65 translocation z-score, replicate mean","p65 translocation z-score, replicate 1",Outcome
Pmaip1,1,ambion single siRNA,3.54,3.94,active
Pmaip1,2,ambion single siRNA,-0.152,0.661,inactive
Pmaip1,3,ambion single siRNA,-3.19,-3.19,active
Pmaip1,4,qiagen single siRNA,0.468,1.33,inactive
Pmaip1,5,qiagen single siRNA,1.28,1.38,inactive
Pmaip1,6,qiagen single siRNA,0.343,-0.286,inactive
Inka2,1,ambion single siRNA,-3.18,-4.09,active
Inka2,2,ambion single siRNA,-2.19,-2.05,active
Inka2,3,ambion single siRNA,0.633,0.633,inactive
Inka2,4,qiagen single siRNA,2.12,2.4,active
Inka2,5,qiagen single siRNA,0.493,0.266,inactive
Inka2,6,qiagen single siRNA,1.08,-0.406,inactive
Ch25h,1,ambion single siRNA,-1.52,-1.6,inactive
Ch25h,2,ambion single siRNA,-1.58,-1.87,inactive
Ch25h,3,ambion single siRNA,-1.29,-1.29,inactive
Ch25h,4,qiagen single siRNA,2.06,0.824,active
Ch25h,5,qiagen single siRNA,1.98,0.769,inactive
Ch25h,6,qiagen single siRNA,-1.09,-1.15,inactive
Dnajb4,1,ambion single siRNA,-0.503,-0.503,inactive
Dnajb4,2,ambion single siRNA,-4.76,-4.68,active
Dnajb4,3,ambion single siRNA,2.77,3.91,active
Dnajb4,4,qiagen single siRNA,1.64,0.514,inactive
Dnajb4,5,qiagen single siRNA,2.41,1.62,active
Dnajb4,6,qiagen single siRNA,2.93,2.21,active
Arhgef25,1,ambion single siRNA,1.23,2.33,inactive
Arhgef25,2,ambion single siRNA,-2.54,-2.24,active
Arhgef25,3,ambion single siRNA,-0.164,1.43,inactive
Arhgef25,4,qiagen single siRNA,1.59,0.413,inactive
Arhgef25,5,qiagen single siRNA,2.23,1.29,active
Arhgef25,6,qiagen single siRNA,-2.6,-0.714,active
Rpn2,1,ambion single siRNA,1.41,2.41,inactive
Rpn2,2,ambion single siRNA,-3.53,-3.06,active
Rpn2,3,ambion single siRNA,-4.49,-5.76,active
Rpn2,4,qiagen single siRNA,3.06,2.24,active
Rpn2,5,qiagen single siRNA,-0.425,-0.191,inactive
Rpn2,6,qiagen single siRNA,-3.03,-3.31,active

5 entries from above in another layout.
Inka2 #3, siRNA vendor or control pool ambion single siRNA
- p65 translocation z-score, replicate mean: 0.633
- p65 translocation z-score, replicate 1: 0.633
- Outcome: inactive

Inka2 #4, siRNA vendor or control pool qiagen single siRNA
- p65 translocation z-score, replicate mean: 2.12
- p65 translocation z-score, replicate 1: 2.4
- Outcome: active

Inka2 #5, siRNA vendor or control pool qiagen single siRNA
- p65 translocation z-score, replicate mean: 0.493
- p65 translocation z-score, replicate 1: 0.266
- Outcome: inactive

Inka2 #6, siRNA vendor or control pool qiagen single siRNA
- p65 translocation z-score, replicate mean: 1.08
- p65 translocation z-score, replicate 1: -0.406
- Outcome: inactive

Ch25h #1, siRNA vendor or control pool ambion single siRNA
- p65 translocation z-score, replicate mean: -1.52
- p65 translocation z-score, replicate 1: -1.6
- Outcome: inactive
